For at least one compound, name, drawing or mass did not settle the structure. Some entries share one result that the patent states for a list of compounds.
Test system: Staphylococcus aureus (MSSA and MRSA strains)
Assay: Synergy of antibiotics with Tellimagrandin II (text summary of Tables 1 to 4)
Type: cell-based
Details: for FIC index: with Tellimagrandin II, text on Table 1 to Table 4; for effect of antibiotic with Tellimagrandin II: Table 2
Experimental: A serial of twofold dilution of the tested antibiotics (oxacillin, erythromycin, ampicillin, kanamycin, levofoxacin, vancomycin and doxycycline) was perform by Broth microdilution method to a final concentration of 2-512 μg/mL. The bacterial overnight culture was collected and re-suspended in the Muller-Hilton (M-H) broth. An aliquot of cell suspension (OD600=0.1) was prepared. The bacterial suspensions were plated in 96-well plate and incubated with test antibiotics at 37° C. in a 5% CO2 incubator (Table 1 to Table 4).
The […], […] and antagonism between two drugs was evaluated by the following formula:
[formula] The criteria of fractional inhibitory concentration index: […]

Cc1onc(-c2ccccc2)c1C(=O)N[C@@H]1C(=O)N2[C@@H]1SC(C)(C)[C@@H]2C(=O)O [Oxacillin]
FIC index: lower than 0.5

C[C@H]1c2cccc(O)c2C(=O)C2=C(O)[C@]3(O)C(=O)C(C(N)=O)=C(O)[C@@H](N(C)C)[C@@H]3[C@@H](O)[C@@H]21 [Doxycycline]
effect of antibiotic with Tellimagrandin II: synergistic effect | FIC index: lower than 0.5

C[C@H]1COc2c(N3CCN(C)CC3)c(F)cc3c(=O)c(C(=O)O)cn1c23 [Levofloxacin]
effect of antibiotic with Tellimagrandin II: synergistic effect

Reference: patent publication US8975234B2, “Anti-bacterial infection, inflammation, and leukemia composition and use thereof” (priority 2011, dated 2015)
